# From patent US8648047B2, “Methods and compositions for inhibition of multi-drug resistance by hyaluronan oligomers” (Tufts University, priority 2002, dated 2014)
# For at least one compound, name, drawing or mass did not settle the structure.
# What was measured:
# [1] = test system: MDCK cells; assay: Colony formation in 0.2% soft agar by MDCK cells; type: cell-based; conditions: HA oligomers 100 μg/ml, LY294002 50 ng/ml
# [2] = test system: TA3/St murine mammary carcinoma cells; assay: Apoptosis assay in suspension culture; type: cell-based, mouse; conditions: 24 hours in suspension; 150 μg/ml controls, 50 nM wortmannin
# Procedure: FIG. 3 is a bar graph showing induction of apoptosis by hyaluronan oligomers under anchorage-independent conditions. TA3/St murine mammary carcinoma cells were grown in suspension in serum-free medium for 24 hours in the presence of 50 or 150 μg/ml hyaluronan oligomers (o-HA), 150 μg/ml of ˜80 kDa molecular weight hyaluronan polymer (HA-80), 150 μg/ml chitin oligomers, 150 μg/ml chondroitin sulfate (CS), or 50 nM wortmannin (WM), a specific inhibitor of mammalian PI3 kinase (phosphoinositide 3-kinase). Apoptotic cells were then analyzed and counted as described in the EXAMPLES section. Results represent the average of two experiments and are expressed as percentage of total cells±range.
# Treatment of tumor cells and preparation of cell lysates for biochemical assays. TA3/St and HCT116 cells were grown for 72 hours in 14 cm culture dishes, then harvested by trypsinization, washed in PBS and suspended in DMEM containing 10% FBS. Two million cells from these cultures were added to each well of non-adherent, Ultra-low cluster plates and incubated in suspension at 37° C. for a further 72 hours. […]
# Apoptosis assay. […] Viable cells (green) and apoptotic cells containing fragmented nuclei (red) were counted and the percentage of apoptotic cells was then calculated.
# [3] = test system: α-isoform of PI3 kinase in TA3/St cells; assay: PI3 kinase α isoform assay (immunoprecipitated); type: cell-based, mouse; conditions: 150 μg/ml polysaccharide controls, 50 nM wortmannin, 20 μM LY294002, 1:50 antibody to CD44
SMILES,colony formation by Has2 adenovirus-infected MDCK cells [1],colony formation by Has2 adenovirus-infected MDCK cells ([1]; listed as HY294002),effect on apoptosis [2],effect on PI3 kinase-α activity [3]
O=c1cc(N2CCOCC2)oc2c(-c3ccccc3)cccc12 [LY294002],reduced the colony forming ability to that of untransfected control cells,reversed this effect,induces apoptosis,virtually the same effect as that of the oligomers
COC[C@H]1OC(=O)c2coc3c2[C@@]1(C)C1=C(C3=O)[C@@H]2CCC(=O)[C@@]2(C)C[C@H]1OC(C)=O [wortmannin],,,induces apoptosis,
